Assay results reported in doi:10.1101/2023.12.05.570199.
No constants are given. Whether binding was seen depends on the method and setting. Some entries that bind do so weakly or less than the wild type.

Amino acid sequences for entries named in this document (tags omitted). Residues count along the entry.
UniProt P0A4G0, residues 26-652: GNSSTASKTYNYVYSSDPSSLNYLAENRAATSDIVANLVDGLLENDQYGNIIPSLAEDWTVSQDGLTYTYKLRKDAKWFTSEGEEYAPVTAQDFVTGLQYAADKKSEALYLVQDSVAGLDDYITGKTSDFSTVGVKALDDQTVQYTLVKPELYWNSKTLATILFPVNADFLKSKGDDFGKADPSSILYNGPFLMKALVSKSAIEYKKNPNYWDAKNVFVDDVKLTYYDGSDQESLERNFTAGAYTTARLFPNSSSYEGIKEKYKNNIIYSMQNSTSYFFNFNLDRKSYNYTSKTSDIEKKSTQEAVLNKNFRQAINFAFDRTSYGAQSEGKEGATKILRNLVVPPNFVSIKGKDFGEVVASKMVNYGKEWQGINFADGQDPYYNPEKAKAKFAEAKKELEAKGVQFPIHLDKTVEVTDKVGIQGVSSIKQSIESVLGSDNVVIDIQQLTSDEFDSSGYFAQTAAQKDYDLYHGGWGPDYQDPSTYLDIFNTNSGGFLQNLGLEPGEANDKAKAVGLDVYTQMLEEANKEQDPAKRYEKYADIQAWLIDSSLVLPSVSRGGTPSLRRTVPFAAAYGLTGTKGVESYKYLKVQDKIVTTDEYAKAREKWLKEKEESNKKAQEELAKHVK

Molecular target: AliB (residues 26-652) (Streptococcus pneumoniae) (UniProt P0A4G0)
Assay: crystal structure

Binder: AIQSEKARKHN [Peptide 2 (…)]
- binding: binds
